Experimental data reported in the supplement of paper PMC12823440, “Inhibitors supercharge kinase turnover through native proteolytic circuits” (Nature, 2025).
The list shows a part of the results. Hit calls seldom repeat between salt and free forms of one compound.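 Kinases, fused to nanoluciferase, were expressed in K562 cells; luminescence was measured every 4 h from 2 to 18 h as percent of control (DMSO = 100%, positive control = 0%). A time point is decreased if signal falls significantly (2 sigma). Hits were called by the authors by a rule that is not shown; the count of time points alone does not decide it.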

The chains behind the UniProt entries cited, without tags or fusion partners. Where a name states a change or a piece, a line headed by the entry shows the natural chain unless it says otherwise.
UniProt Q15208: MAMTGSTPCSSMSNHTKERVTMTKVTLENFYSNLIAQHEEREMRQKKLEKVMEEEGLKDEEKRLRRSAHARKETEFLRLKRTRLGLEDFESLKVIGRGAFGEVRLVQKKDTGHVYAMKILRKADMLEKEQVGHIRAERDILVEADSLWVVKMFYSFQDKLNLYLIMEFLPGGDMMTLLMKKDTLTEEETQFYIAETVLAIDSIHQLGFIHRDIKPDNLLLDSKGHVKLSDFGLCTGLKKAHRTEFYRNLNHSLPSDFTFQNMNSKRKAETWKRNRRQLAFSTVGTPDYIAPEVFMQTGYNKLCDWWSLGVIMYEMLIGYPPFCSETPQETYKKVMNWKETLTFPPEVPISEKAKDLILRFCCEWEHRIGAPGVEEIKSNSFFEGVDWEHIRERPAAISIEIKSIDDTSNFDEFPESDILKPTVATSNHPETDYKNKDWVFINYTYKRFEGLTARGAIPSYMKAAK
UniProt P42680: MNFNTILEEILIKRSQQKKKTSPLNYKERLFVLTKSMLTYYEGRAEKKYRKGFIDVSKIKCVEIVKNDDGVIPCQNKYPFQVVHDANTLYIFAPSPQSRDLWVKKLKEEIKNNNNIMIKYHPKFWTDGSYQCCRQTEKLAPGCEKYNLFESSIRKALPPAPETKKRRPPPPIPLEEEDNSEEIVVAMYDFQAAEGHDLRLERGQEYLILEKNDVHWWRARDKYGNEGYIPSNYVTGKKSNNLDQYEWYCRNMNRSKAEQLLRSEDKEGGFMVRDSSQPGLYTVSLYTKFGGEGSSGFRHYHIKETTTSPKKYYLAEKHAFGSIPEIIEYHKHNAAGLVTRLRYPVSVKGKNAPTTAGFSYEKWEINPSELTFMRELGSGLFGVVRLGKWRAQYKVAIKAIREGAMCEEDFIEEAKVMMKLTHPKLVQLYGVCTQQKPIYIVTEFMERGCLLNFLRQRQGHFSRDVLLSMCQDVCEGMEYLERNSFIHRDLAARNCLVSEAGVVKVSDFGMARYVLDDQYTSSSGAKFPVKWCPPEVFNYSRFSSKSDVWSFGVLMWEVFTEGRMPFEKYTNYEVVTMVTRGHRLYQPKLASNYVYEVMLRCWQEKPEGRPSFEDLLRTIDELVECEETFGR
UniProt P29597: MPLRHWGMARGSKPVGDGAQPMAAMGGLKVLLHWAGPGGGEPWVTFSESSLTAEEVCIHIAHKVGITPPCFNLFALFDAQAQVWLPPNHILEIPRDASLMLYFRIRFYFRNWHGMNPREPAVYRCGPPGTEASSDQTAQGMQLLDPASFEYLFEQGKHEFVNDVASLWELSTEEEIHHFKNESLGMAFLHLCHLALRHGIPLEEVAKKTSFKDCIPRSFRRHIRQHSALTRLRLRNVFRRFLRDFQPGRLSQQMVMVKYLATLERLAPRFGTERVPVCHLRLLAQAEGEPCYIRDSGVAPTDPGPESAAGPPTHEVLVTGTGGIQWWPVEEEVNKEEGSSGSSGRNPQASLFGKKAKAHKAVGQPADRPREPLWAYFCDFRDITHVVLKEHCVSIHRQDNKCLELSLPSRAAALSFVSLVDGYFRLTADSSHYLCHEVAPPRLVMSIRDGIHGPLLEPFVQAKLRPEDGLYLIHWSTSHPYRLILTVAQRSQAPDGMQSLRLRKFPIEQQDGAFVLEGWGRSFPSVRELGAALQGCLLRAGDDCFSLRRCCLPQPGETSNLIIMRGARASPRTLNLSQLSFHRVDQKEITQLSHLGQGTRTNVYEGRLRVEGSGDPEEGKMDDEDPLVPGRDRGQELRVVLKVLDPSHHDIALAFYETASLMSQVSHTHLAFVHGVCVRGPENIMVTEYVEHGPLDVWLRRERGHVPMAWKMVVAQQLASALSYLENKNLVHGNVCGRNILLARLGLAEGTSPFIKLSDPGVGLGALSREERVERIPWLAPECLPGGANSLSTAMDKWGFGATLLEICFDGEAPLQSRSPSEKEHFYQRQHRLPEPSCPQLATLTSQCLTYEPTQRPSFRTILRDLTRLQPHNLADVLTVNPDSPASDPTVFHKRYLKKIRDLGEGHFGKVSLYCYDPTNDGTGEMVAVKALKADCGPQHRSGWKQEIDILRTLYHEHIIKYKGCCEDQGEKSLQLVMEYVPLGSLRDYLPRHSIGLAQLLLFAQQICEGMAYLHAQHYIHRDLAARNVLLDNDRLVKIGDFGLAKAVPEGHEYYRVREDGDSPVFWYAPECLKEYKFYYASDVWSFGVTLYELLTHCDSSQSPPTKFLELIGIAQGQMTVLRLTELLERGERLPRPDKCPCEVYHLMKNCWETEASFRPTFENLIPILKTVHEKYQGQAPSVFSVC
UniProt Q6PHR2: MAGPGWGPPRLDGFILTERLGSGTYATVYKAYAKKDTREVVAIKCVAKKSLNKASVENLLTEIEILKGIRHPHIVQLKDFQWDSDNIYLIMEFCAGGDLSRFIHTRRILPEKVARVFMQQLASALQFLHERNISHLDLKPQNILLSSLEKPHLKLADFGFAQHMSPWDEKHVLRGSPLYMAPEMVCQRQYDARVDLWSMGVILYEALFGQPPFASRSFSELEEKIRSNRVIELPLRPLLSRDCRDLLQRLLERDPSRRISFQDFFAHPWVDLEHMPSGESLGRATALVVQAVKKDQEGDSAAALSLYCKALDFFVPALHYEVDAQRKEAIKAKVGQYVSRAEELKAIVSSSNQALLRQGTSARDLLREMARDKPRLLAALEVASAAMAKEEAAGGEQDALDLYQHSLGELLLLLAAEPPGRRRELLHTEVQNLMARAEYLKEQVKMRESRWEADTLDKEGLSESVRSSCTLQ
UniProt P07947, whole entry, looked up: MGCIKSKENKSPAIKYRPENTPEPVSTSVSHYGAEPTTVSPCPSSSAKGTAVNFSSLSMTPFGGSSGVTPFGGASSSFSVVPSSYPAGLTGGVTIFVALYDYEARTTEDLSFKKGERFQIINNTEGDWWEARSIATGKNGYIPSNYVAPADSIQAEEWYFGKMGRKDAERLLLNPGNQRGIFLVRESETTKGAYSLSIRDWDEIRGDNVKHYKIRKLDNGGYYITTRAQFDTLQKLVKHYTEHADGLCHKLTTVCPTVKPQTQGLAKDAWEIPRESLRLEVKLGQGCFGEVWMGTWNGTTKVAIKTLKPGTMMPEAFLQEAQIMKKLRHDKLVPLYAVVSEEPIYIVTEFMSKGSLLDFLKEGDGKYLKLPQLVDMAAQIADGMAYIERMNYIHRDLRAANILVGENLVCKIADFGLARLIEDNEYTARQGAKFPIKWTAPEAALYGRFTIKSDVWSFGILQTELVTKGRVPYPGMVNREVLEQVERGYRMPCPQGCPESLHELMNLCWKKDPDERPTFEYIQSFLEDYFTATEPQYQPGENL
UniProt P43403: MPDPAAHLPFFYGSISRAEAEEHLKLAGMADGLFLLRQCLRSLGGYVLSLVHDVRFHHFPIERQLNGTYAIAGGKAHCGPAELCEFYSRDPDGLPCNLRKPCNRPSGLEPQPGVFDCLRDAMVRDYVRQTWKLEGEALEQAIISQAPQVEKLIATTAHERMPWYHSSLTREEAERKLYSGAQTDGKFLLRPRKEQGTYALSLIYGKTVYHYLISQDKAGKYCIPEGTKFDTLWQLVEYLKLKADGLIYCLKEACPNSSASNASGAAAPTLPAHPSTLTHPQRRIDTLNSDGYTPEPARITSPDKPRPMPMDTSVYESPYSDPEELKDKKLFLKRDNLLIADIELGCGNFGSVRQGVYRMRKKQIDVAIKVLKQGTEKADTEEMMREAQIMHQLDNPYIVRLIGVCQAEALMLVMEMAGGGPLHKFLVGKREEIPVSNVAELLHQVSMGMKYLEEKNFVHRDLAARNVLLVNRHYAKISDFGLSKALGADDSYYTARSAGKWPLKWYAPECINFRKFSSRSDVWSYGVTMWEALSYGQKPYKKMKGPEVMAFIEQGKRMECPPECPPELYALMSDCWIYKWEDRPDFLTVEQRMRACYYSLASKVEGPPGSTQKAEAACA
UniProt P00519, whole entry: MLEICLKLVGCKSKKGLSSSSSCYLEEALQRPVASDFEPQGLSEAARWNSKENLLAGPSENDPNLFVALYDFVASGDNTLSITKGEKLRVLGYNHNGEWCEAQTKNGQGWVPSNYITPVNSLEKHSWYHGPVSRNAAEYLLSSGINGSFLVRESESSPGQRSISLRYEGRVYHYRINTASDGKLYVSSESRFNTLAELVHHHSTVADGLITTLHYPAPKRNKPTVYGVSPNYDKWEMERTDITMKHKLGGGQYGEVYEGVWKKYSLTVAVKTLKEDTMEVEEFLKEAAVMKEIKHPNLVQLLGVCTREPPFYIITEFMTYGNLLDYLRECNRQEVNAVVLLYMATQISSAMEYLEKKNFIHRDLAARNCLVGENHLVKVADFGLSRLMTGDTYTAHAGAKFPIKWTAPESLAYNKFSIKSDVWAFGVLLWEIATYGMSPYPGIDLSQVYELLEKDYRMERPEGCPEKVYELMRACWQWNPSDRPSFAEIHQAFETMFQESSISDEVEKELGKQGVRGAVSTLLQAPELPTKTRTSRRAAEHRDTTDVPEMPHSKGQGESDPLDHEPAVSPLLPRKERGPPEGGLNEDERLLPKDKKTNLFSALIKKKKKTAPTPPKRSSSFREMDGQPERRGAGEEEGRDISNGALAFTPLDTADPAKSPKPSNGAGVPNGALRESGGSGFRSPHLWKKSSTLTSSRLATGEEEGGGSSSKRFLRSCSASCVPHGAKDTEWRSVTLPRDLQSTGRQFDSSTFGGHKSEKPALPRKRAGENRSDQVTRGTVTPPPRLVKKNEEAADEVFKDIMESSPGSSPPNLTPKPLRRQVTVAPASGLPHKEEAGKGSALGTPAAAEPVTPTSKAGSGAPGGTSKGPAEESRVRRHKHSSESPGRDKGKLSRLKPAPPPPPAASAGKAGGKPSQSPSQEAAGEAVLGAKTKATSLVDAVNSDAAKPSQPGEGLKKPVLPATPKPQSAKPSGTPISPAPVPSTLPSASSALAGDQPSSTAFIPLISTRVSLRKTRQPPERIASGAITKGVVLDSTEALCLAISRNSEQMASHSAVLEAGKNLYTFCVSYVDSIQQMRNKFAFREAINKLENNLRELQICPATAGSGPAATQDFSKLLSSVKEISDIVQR
UniProt P31749: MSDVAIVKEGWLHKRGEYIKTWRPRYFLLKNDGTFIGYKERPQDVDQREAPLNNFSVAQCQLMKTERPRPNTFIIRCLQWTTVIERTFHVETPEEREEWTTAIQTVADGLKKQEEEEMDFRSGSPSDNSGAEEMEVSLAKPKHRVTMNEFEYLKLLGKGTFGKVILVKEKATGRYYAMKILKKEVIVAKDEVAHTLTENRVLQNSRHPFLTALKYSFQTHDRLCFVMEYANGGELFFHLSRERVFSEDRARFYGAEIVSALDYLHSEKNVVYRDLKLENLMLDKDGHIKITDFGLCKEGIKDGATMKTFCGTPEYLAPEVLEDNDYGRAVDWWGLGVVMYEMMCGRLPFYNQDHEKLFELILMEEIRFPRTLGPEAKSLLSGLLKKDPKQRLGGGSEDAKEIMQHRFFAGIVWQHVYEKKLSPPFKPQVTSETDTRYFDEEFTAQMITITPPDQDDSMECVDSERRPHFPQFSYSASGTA

Tests used:
Details in all cases: K562; 2-18 h
STK38 = STK38 (UniProt Q15208); experiment: kinase-Nluc reporter destabilization hit call (1 = scored as downregulated) (binary); higher = compound decreases kinase abundance
SYK = SYK (UniProt P43405); experiment: as above
TEC = TEC (UniProt P42680); experiment: as above
TYK2 = TYK2 (UniProt P29597); experiment: as above
ULK3 = ULK3 (UniProt Q6PHR2); experiment: as above
YES1 = YES1 (UniProt P07947); experiment: as above
ZAK = ZAK (UniProt Q9NYL2); experiment: as above
ZAP70 = ZAP70 (UniProt P43403); experiment: as above
ABL1 = ABL1 (UniProt P00519); experiment: number of time points (of 5) at which kinase-Nluc abundance scored as decreased, DMSO-normalised (count); higher = more persistent destabilization
AKT1 = AKT1 (UniProt P31749); experiment: as above

SMILES	kinase-Nluc reporter destabilization hit call (STK38)	kinase-Nluc reporter destabilization hit call (SYK)	kinase-Nluc reporter destabilization hit call (TEC)	kinase-Nluc reporter destabilization hit call (TYK2)	kinase-Nluc reporter destabilization hit call (ULK3)	kinase-Nluc reporter destabilization hit call (YES1)	kinase-Nluc reporter destabilization hit call (ZAK)	kinase-Nluc reporter destabilization hit call (ZAP70)	number of time points (ABL1)	number of time points (AKT1)
CNC(=O)c1c(C)oc2cc(Oc3ncnc4cc(OC)c(OC)cc34)ccc12 [Fruquintinib] (10 µM)	inactive: 0	inactive: 0	inactive: 0	inactive: 0	inactive: 0	inactive: 0	inactive: 0	inactive: 0	0	0
Cc1cc(Nc2ncc(Cl)c(Nc3ccccc3S(=O)(=O)C(C)C)n2)c(OC(C)C)cc1C1CCN(CC(=O)NCCNc2cccc3c2C(=O)N(C2CCC(=O)NC2=O)C3=O)CC1 (stereo not given) (10 µM)	inactive: 0	inactive: 0	inactive: 0	inactive: 0	inactive: 0	inactive: 0	inactive: 0	inactive: 0	0	0
O=C(CC(c1ccccc1)C(C(=O)O)C(=O)O)c1ccc(C(F)(F)F)cc1 (stereo not given) (10 µM)	inactive: 0	inactive: 0	inactive: 0	inactive: 0	inactive: 0	inactive: 0	inactive: 0	inactive: 0	0	0
CC(C)n1cnnc1-c1cccc(NC(=O)c2cc3ccc(F)cc3[nH]2)n1 (2.5 µM)	inactive: 0	inactive: 0	inactive: 0	inactive: 0	inactive: 0	inactive: 0	inactive: 0	inactive: 0	4	0
O=C(N=c1sccn1Cc1ccccc1)c1c[nH]c2ncccc12 (10 µM)	inactive: 0	inactive: 0	inactive: 0	inactive: 0	inactive: 0	inactive: 0	inactive: 0	inactive: 0	0	0
CN(C)C(=O)c1cc2cnc(Nc3ccc(NC(=O)C4(C(=O)Nc5ccc(F)cc5)CC4)cc3)nc2n1C1CCCC1 (2 µM)	inactive: 0	inactive: 0	inactive: 0	inactive: 0	inactive: 0	inactive: 0	inactive: 0	inactive: 0	0	0
COc1cc(Nc2nc3ccccc3nc2NS(=O)(=O)c2ccc(NC(=O)c3ccc(C)c(OC)c3)cc2)cc(OC)c1 (10 µM)	inactive: 0	inactive: 0	inactive: 0	inactive: 0	inactive: 0	inactive: 0	inactive: 0	inactive: 0	0	0
CS(=O)(=O)N1CCN(Cc2cn3cc(-c4cnc(N)nc4)nc(N4CCOCC4)c3n2)CC1 (10 µM)	inactive: 0	inactive: 0	inactive: 0	inactive: 0	inactive: 0	inactive: 0	inactive: 0	inactive: 0	4	0
Nc1n[nH]c(N)c1N=Nc1ccc(O)cc1 (10 µM)	inactive: 0	inactive: 0	inactive: 0	inactive: 0	inactive: 0	inactive: 0	inactive: 0	inactive: 0	0	0
Oc1ccc2ccccc2c1SSc1c(O)ccc2ccccc12 (10 µM)	inactive: 0	inactive: 0	inactive: 0	inactive: 0	inactive: 0	inactive: 0	inactive: 0	inactive: 0	0	0
Cc1ccc(CNC(=O)N2CCC[C@]3(CCN(Cc4ccc(Cl)c(Cl)c4)C3)C2)cc1 (10 µM)	inactive: 0	inactive: 0	inactive: 0	inactive: 0	inactive: 0	inactive: 0	inactive: 0	inactive: 0	0	0
CC1=C(C(=O)Nc2ccc3[nH]ncc3c2)C(c2ccc(F)c(C(=O)NCc3ccccn3)c2)NC(=O)N1 (stereo not given) (10 µM)	inactive: 0	inactive: 0	inactive: 0	inactive: 0	inactive: 0	inactive: 0	inactive: 0	inactive: 0	0	0
Cc1cccc(Cn2nc(C)c3c(NC(=O)c4csc5c(N)ncnc45)cccc32)n1 (10 µM)	inactive: 0	inactive: 0	inactive: 0	inactive: 0	inactive: 0	inactive: 0	inactive: 0	inactive: 0	0	0
CCC(=O)N1CC[C@H](Nc2ncnc3c2CN(c2cnc(OC)c(C(F)(F)F)c2)CC3)C1 [Leniolisib] (10 µM)	inactive: 0	inactive: 0	inactive: 0	inactive: 0	inactive: 0	inactive: 0	inactive: 0	inactive: 0	0	0
Nc1nc2c(ncn2COCCO)c(=O)[nH]1 [Acyclovir] (10 µM)	inactive: 0	inactive: 0	inactive: 0	inactive: 0	inactive: 0	inactive: 0	inactive: 0	inactive: 0	0	0

Part of the list above in order of number of heavy atoms, falling:
SMILES	kinase-Nluc reporter destabilization hit call (STK38)	kinase-Nluc reporter destabilization hit call (SYK)	kinase-Nluc reporter destabilization hit call (TEC)	kinase-Nluc reporter destabilization hit call (TYK2)	kinase-Nluc reporter destabilization hit call (ULK3)	kinase-Nluc reporter destabilization hit call (YES1)	kinase-Nluc reporter destabilization hit call (ZAK)	kinase-Nluc reporter destabilization hit call (ZAP70)	number of time points (ABL1)	number of time points (AKT1)
COc1cc(Nc2nc3ccccc3nc2NS(=O)(=O)c2ccc(NC(=O)c3ccc(C)c(OC)c3)cc2)cc(OC)c1 (10 µM)	inactive: 0	inactive: 0	inactive: 0	inactive: 0	inactive: 0	inactive: 0	inactive: 0	inactive: 0	0	0
CC1=C(C(=O)Nc2ccc3[nH]ncc3c2)C(c2ccc(F)c(C(=O)NCc3ccccn3)c2)NC(=O)N1 (stereo not given) (10 µM)	inactive: 0	inactive: 0	inactive: 0	inactive: 0	inactive: 0	inactive: 0	inactive: 0	inactive: 0	0	0
Nc1nc2c(ncn2COCCO)c(=O)[nH]1 [Acyclovir] (10 µM)	inactive: 0	inactive: 0	inactive: 0	inactive: 0	inactive: 0	inactive: 0	inactive: 0	inactive: 0	0	0
